From patent US20170029524A1
Residue numbers refer to the chain shown, from its start. These are yes or no findings as the source states them, for the method shown. Some results given as binding are weak or reduced against the parent protein; the word gives no strength. Where a sequence is shown, tags or fusion partners need not be part of it.

T1: human CD99/Fc fusion protein (human) (UniProt P14209)
T1 sequence (looked up): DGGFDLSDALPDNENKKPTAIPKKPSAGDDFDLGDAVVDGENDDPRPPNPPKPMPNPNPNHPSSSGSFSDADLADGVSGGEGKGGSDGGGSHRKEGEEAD

B1: humanized 12E7-G1 (antibody, V domains shown)
VH: QVQLVQSGAEVKKPGASVKVSCKASGYTFKDTYIHWVRQAPGQGLEWMGRIDPANGNTKYDPKFQGRVTMTRDTSISTAYMELSRLRSDDTAVYYCARRGGVDWGQGTLVTVSS
VL: DIVMTQTPLSLSVTPGQPASISCKSSQSLLDGDGKTYLNWLLQKPGQSPQRLIYLVSKLDSGVPDRFSGSGSGTDFTLKISRVEAEDVGVYYCWQGTHFPRTFGQGTKLEIK
B2: Hu12E7-2-G1 (antibody, V domains shown)
VH: B1 VH with Y27F, T28N, F29I
VL: B1 VL

Experiments:
[1] = target: T1, human CD99/Fc fusion protein (human); assay: ELISA
[2] = target: T1, human CD99/Fc fusion protein (human); assay: ELISA, coated human CD99/Fc, anti-human kappa-HRP
[3] = target: T1, human CD99/Fc fusion protein (human); assay: ELISA, coated human CD99/Fc

Binder | binding [1] | binding [2] | binding [3]
B1 | binds | binds | binds
B2 | binds |  | 
